{"source": "patent US5639787A", "about": "“Therapeutic method for the treatment of cancer” (priority 1995, dated 1997)", "origin": "cited, not measured here", "conditions": "cited from earlier work", "note": "The name of at least one read-out is uncertain."}
{"smiles": "O=C1O[C@H]([C@@H](O)CO)C(O)=C1O", "note": "[ascorbic acid]", "values": [{"measurement": "highest plasma levels generally achievable in humans by oral supplementation", "value": 4.5, "unit": "mg/dL"}]}
